Data reported in PMC5642495, “Characterization of a novel androgen receptor (AR) coregulator RIPK1 and related chemicals that suppress AR-mediated prostate cancer growth via peptide and chemical screening” (Oncotarget, 2017).
Results are given in words; binding and its absence hold for the method and conditions named. In cells and extracts the contact can be indirect. A result given as binding can be weak or reduced; the word gives no strength.

By UniProt entry, the sequences of proteins in these tests, tags left out. Where a name states a change or a piece, a line headed by the entry shows the natural chain unless it says otherwise.
UniProt P10275: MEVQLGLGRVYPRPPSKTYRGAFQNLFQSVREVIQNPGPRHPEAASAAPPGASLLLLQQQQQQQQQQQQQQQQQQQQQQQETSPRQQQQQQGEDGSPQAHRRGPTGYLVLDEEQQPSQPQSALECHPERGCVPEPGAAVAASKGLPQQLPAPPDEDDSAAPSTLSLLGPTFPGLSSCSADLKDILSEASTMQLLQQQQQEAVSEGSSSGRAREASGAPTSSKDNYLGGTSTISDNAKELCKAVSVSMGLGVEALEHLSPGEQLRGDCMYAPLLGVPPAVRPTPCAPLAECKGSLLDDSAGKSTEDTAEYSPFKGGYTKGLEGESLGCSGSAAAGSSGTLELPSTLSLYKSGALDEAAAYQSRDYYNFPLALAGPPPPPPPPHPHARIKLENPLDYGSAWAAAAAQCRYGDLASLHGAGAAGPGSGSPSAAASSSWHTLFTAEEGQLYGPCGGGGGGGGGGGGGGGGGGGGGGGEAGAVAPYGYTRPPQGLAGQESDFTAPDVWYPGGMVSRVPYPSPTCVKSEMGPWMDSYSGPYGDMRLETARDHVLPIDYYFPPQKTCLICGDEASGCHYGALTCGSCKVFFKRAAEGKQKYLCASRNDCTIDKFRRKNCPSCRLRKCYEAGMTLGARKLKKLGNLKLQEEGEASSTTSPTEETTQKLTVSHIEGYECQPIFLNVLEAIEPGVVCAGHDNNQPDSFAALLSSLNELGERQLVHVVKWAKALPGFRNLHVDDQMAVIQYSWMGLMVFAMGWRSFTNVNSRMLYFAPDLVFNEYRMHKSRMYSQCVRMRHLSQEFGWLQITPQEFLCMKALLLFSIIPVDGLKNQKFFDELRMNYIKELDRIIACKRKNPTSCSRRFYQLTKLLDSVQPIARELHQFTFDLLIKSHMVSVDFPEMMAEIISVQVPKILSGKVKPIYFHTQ
UniProt Q13546: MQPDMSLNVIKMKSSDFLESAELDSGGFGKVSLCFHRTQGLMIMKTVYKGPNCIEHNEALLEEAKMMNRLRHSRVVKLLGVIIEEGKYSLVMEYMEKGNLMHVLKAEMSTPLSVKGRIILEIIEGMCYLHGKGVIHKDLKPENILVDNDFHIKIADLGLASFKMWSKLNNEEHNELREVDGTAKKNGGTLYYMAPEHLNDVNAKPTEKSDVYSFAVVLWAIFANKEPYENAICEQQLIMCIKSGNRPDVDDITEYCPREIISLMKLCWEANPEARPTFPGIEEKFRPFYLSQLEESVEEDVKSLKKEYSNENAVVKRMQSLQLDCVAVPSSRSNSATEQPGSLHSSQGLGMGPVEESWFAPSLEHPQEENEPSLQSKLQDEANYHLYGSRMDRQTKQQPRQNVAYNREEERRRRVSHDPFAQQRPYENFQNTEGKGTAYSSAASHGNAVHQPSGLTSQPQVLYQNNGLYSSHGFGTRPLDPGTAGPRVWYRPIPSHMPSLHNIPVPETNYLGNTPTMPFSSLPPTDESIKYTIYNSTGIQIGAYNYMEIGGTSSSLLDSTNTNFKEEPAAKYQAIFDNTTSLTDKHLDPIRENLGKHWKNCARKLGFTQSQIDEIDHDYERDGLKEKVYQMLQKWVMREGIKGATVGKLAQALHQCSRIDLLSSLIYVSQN

How the values were obtained:
[1] = target: AR DBD-LBD, C-terminal region of AR (GST pull-down assay) (human) (UniProt P10275); assay: pull-down; GST pull-down; which partner carried GST and the conditions are not told (refs 8, 16)
[2] = target: AR N-terminal region (GST pull-down assay) (human) (UniProt P10275); assay: as above

binding [1]: binds
binding [2]: binds
Substance: RIPK1 (as used in the GST pull-down assay) (from UniProt Q13546 1-671) (enzyme)
